Some compounds share one wording; it may come from a single statement.
Assay: Transferability: status A reflection density of solid image
Conditions: status A reflection density of solid density (100% dot density) image

Row | Compound | Transferability
1 | CCN(CC)c1ccc(N=C2C=C(NC(C)=O)C(=O)C=C2C)c(C)c1 [Comparative Dye 3] | A (Those having a reflection density of at least 1.8 are excellent, A)
2 | CCN(CC)c1ccc(N=C2C=C(NC(=O)c3ccccc3)C(=O)C(Cl)=C2C)c(C)c1 [Comparative Dye 5] | A (Those having a reflection density of at least 1.8 are excellent, A)
3 | CCC(=O)NC1=CC(=Nc2ccc(N(CC)CC)cc2)C(C)=C(Cl)C1=O [Compound (1)] | A (Those having a reflection density of at least 1.8 are excellent, A)
4 | CCN(CC)c1ccc(N=C2C=C(NC(C)=O)C(=O)C(Cl)=C2C)c(C)c1 [Comparative Dye 4] | A (Those having a reflection density of at least 1.8 are excellent, A)
5 | CCN(CC)c1ccc(N=C2C=C(NC(C)=O)C(=O)C(Cl)=C2C)cc1 [Comparative Dye 1] | B (those having from 1.6 to less than 1.8 are good, B)

— patent US20080242542A1, “INDANILINE DYE, THERMAL TRANSFER RECORDING INK SHEET, THERMAL TRANSFER RECORDING METHOD, COLOR TONER, INKJET INK, AND COLOR FILTER” (FUJIFILM Corporation, priority 2007, published 2008)
